Data published in paper doi:10.1101/2025.02.04.636234.
No constants are given. Whether binding was seen depends on the method and setting. In cells and extracts the contact can be indirect. Some entries that bind do so weakly or less than the wild type. Where a sequence is shown, tags or fusion partners need not be part of it.

How the values were obtained:
Assay in all cases: co-IP
[1] = target: T1, TOC1-HA (Arabidopsis thaliana) (UniProt Q9LKL2)
T1 sequence: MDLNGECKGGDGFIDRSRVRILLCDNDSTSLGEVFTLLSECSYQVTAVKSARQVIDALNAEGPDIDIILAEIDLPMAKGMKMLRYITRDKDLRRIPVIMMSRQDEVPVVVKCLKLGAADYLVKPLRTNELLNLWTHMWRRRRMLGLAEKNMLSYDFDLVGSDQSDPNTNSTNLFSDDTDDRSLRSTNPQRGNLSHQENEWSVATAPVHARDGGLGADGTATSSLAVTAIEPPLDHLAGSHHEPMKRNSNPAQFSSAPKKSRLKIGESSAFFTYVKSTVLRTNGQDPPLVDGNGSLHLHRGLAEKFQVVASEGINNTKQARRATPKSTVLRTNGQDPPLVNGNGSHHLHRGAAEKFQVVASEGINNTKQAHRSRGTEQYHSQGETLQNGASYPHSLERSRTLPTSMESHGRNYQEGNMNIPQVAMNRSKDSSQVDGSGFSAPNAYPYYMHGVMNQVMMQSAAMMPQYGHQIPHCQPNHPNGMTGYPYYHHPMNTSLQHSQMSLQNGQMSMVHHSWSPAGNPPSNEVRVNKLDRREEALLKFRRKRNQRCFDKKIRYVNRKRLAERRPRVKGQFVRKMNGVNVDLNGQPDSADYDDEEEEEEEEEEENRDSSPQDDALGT

[2] = target: T2, PRR7-HA (Arabidopsis thaliana) (UniProt Q93WK5)
T2 sequence: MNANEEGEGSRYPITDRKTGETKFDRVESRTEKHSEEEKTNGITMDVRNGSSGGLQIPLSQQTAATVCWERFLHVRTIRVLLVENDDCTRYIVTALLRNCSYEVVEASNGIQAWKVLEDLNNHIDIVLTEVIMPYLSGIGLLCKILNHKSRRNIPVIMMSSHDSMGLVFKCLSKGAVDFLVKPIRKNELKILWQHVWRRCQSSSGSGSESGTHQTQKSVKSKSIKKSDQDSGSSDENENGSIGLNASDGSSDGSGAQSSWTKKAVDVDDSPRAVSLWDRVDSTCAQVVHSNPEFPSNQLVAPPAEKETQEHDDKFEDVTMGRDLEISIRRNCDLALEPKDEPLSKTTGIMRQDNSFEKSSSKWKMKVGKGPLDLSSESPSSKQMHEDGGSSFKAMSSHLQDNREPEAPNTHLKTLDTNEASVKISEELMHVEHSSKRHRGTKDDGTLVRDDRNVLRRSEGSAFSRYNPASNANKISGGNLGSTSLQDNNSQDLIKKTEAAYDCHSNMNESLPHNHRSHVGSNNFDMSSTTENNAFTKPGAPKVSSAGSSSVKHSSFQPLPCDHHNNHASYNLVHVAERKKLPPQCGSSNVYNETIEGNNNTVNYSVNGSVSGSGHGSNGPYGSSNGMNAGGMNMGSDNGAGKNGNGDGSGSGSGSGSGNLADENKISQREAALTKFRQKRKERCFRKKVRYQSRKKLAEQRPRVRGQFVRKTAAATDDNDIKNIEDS

[3] = target: T3, PRR5-HA (Arabidopsis thaliana) (UniProt Q6LA42)
T3 sequence: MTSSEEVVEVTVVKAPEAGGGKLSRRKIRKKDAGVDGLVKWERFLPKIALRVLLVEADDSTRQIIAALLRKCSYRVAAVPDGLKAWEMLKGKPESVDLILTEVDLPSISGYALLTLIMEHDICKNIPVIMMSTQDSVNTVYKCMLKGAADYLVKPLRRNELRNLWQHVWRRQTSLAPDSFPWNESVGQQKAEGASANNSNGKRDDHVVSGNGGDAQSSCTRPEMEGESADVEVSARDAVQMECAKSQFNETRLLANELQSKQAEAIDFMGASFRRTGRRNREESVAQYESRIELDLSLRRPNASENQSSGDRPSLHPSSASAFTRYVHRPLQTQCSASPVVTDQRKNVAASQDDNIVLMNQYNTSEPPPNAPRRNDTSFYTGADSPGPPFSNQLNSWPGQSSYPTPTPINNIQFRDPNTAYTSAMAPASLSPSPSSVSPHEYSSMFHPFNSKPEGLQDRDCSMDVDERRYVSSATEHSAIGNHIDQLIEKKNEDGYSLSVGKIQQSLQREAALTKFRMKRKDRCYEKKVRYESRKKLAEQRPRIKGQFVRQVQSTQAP

[4] = target: T4, PRR9-HA (Arabidopsis thaliana) (UniProt Q8L500)
T4 sequence: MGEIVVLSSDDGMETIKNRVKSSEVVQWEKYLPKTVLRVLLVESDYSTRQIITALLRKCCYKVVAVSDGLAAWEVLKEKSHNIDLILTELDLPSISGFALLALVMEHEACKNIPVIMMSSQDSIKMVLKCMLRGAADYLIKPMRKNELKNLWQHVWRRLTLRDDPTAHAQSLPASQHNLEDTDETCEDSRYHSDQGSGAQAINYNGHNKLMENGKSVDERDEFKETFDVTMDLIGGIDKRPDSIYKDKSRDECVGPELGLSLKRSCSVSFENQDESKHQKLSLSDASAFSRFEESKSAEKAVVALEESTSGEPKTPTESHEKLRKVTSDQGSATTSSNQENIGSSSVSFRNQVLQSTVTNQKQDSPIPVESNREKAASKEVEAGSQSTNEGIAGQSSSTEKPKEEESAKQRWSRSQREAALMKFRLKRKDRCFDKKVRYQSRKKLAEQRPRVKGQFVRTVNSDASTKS

- binding [1]: binds
- binding [2]: binds
- binding [3]: binds
- binding [4]: binds
B1: mTurq-LWD1 (protein, UniProt Q9LPV9 1-346)
chain: MGTSSDPIQDGSDEQQKRSEIYTYEAPWHIYAMNWSVRRDKKYRLAITSLLEQYPNRVEIVQLDESNGEIRSDPNLSFEHPYPPTKTIFIPDKECQRPDLLATSSDFLRLWRIADDHSRVELKSCLNSNKNSEFCGPLTSFDWNEAEPRRIGTSSTDTTCTIWDIEREAVDTQLIAHDKEVFDIAWGGVGVFASVSADGSVRVFDLRDKEHSTIIYESSEPDTPLVRLGWNKQDPRYMATIIMDSAKVVVLDIRFPALPVVELQRHQASVNAIAWAPHSSCHICTAGDDSQALIWDISSMGQHVEGGLDPILAYTAGAEIEQLQWSSSQPDWVAIAFSTKLQILRV
